Measurements taken from the supplement of paper PMC11732987, “Enantioselective OTUD7B fragment discovery through chemoproteomics screening and high-throughput optimisation” (Communications Chemistry, 2025).
This is one part of the list. The data scatter; read single values as rough.

By UniProt entry, the sequences of proteins in these tests, tags left out. Where a name states a change or a piece, a line headed by the entry shows the natural chain unless it says otherwise.
UniProt Q99497: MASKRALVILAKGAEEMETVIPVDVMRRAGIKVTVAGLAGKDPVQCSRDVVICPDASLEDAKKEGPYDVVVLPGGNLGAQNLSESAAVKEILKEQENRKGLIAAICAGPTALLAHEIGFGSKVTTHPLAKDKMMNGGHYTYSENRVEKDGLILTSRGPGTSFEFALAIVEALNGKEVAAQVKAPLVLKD
UniProt Q504Q3: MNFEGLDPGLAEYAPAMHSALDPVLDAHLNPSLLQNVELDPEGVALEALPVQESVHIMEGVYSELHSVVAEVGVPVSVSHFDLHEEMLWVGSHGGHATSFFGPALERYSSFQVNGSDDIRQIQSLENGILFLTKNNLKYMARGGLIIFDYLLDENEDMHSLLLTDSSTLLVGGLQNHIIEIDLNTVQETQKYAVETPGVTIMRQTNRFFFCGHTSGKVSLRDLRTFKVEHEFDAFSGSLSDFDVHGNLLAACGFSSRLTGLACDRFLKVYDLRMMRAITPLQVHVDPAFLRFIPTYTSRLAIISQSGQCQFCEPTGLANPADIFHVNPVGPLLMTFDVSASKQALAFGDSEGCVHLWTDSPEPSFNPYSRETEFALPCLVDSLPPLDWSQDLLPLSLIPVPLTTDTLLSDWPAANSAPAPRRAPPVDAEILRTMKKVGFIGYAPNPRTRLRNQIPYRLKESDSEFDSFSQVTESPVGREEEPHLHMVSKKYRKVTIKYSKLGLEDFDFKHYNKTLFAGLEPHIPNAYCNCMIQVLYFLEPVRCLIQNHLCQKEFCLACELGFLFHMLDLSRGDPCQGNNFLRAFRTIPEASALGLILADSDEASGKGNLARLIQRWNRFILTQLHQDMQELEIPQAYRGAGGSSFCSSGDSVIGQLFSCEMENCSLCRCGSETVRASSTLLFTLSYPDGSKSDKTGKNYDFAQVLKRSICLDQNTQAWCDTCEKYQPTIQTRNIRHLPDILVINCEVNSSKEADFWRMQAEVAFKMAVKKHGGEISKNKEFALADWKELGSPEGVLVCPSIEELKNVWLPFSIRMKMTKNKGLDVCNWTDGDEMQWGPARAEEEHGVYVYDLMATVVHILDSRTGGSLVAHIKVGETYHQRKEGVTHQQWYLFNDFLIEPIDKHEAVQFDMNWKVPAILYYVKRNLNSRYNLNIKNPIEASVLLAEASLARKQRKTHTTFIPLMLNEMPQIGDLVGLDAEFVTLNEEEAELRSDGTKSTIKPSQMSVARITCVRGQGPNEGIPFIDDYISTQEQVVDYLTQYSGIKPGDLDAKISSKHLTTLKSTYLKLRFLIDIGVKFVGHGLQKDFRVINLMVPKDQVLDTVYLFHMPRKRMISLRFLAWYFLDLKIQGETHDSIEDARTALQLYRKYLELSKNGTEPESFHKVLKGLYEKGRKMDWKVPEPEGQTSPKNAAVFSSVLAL
UniProt Q9BRP1: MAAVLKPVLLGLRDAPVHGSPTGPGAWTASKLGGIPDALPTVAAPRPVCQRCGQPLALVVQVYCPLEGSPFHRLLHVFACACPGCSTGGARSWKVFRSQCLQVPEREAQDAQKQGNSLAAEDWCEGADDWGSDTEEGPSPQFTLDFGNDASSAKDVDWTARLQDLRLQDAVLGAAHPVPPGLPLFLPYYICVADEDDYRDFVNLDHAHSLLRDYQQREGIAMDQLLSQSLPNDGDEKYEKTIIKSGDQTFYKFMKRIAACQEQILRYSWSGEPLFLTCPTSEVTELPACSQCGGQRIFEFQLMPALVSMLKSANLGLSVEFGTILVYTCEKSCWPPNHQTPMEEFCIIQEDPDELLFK
UniProt Q9BRX2, whole entry, looked up: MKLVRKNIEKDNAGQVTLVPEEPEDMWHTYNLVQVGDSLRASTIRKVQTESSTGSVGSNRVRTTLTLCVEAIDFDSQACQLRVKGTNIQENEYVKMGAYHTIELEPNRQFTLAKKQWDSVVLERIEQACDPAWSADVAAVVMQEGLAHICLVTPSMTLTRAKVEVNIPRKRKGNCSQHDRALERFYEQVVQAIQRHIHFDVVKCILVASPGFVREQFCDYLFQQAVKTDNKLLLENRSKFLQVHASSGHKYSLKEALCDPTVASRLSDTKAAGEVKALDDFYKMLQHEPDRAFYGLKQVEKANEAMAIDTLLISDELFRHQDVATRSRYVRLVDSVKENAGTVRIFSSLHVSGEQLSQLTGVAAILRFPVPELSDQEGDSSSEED
UniProt Q14554: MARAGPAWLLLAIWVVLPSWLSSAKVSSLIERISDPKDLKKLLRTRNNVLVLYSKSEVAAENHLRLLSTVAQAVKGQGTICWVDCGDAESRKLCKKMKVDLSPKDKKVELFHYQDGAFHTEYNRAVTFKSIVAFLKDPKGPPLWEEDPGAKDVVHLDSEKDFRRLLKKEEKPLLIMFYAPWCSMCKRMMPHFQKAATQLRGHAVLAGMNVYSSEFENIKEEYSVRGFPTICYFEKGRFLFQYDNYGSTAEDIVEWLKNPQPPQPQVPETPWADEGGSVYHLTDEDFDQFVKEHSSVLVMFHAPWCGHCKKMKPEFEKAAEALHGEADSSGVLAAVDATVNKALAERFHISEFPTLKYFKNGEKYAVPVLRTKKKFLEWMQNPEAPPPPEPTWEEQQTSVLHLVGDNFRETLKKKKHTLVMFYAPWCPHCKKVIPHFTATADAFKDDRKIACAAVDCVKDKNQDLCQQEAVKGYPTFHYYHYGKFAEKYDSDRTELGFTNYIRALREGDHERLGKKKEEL

Compound: ClCC(=O)N[C@H]1CCCc2ccccc12
Assay: log2 mean competition ratio of IA-DTB cysteine labelling (DMSO/compound) (log2 ratio); higher = stronger cysteine engagement by compound
Settings: 200 µM; treatment time: 4 h; cell line lysate: HEK293T
Protocol: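 IA-DTB competitive cysteine chemoproteomics in HEK293T RIPA lysate. Lysates were treated with compound 29 or 30 at 50 or 200 µM for 4 h, then IA-DTB (500 µM, 1 h), trypsin-digested, NeutrAvidin-enriched and analysed by diaPASEF. Competition ratio = intensity DMSO / intensity compound (n=4 treated, n=64 DMSO); binding: mean log2 CR ≥ 1 and p ≤ 0.05 plus QC filters. Target is the cysteine site.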

Row | Target | log2 mean competition ratio
1 | PARK7 C53 (UniProt Q99497) | -1.23
2 | PAN2 C575 (UniProt Q504Q3) | 0.094
3 | PGD C289 | -0.0767
4 | PDCD2L C100 (UniProt Q9BRP1) | -0.0754
5 | PELO C258 (UniProt Q9BRX2) | -0.0552
6 | PDIA5 C231 (UniProt Q14554) | -0.416
7 | PDK2 C45 (UniProt Q15119) | 0.473
